Assay results taken from the supplement of paper PMC12819154, “High-throughput peptide-centric local stability assay extends protein–ligand identification to membrane proteins, tissues and bacteria” (Nature Structural & Molecular Biology, 2025).
Some of the results follow. Most entries show no effect beyond the scatter of the controls.

Chains of the proteins cited; added tags and fusions are not shown. Lines headed by an entry give the natural chain unless they say otherwise; changes in a name come on top.
UniProt Q8N8Z8: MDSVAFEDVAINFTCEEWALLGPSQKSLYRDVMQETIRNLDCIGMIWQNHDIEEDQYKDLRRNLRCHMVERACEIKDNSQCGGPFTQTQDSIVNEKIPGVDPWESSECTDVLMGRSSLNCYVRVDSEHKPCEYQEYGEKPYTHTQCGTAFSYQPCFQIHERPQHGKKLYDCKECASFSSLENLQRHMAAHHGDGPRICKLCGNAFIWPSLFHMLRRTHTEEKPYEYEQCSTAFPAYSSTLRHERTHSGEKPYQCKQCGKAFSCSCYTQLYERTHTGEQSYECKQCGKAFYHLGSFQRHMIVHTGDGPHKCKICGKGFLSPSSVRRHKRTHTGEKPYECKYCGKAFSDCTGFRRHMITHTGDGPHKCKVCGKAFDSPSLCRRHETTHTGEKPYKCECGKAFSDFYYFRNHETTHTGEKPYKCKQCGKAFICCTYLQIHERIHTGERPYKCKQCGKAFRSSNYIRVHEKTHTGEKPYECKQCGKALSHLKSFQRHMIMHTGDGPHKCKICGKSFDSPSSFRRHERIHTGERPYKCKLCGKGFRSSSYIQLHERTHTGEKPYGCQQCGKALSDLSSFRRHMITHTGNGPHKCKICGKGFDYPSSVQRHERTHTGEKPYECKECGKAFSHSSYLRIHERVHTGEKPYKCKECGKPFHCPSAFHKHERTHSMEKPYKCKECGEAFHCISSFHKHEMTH
UniProt Q8NEK5: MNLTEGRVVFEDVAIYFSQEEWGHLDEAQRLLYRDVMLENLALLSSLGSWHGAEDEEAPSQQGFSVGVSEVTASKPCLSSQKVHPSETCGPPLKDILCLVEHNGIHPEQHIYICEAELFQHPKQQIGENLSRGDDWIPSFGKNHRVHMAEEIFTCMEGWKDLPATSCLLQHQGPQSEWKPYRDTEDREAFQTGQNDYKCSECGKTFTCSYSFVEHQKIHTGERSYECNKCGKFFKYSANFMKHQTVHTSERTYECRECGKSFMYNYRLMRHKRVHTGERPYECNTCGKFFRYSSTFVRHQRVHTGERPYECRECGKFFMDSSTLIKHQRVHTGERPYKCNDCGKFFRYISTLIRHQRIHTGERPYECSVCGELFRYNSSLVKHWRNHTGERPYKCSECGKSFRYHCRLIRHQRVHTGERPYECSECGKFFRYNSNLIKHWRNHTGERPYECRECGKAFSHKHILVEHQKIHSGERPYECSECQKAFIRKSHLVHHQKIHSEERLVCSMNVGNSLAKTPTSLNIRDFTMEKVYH
UniProt Q8TBE0: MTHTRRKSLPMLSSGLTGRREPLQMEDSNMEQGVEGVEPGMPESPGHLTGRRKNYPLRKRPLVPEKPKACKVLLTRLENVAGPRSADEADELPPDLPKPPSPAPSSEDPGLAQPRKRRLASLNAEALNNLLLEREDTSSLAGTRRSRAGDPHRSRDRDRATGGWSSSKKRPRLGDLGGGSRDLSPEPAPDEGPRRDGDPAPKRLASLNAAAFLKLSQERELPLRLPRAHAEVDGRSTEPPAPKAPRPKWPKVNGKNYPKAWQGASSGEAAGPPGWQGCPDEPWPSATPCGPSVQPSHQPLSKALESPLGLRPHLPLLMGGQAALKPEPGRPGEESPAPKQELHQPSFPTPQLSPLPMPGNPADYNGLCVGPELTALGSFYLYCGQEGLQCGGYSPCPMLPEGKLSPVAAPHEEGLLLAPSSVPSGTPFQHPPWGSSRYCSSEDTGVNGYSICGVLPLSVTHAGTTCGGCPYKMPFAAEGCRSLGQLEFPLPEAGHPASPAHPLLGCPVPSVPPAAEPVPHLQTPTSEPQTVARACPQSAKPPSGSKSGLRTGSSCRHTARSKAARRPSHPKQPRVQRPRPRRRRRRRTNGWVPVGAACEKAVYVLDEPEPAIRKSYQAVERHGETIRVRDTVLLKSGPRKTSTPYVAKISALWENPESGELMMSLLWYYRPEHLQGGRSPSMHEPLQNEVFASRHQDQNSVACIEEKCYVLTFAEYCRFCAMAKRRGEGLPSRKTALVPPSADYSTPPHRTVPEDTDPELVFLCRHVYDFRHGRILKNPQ
UniProt Q8N9N7: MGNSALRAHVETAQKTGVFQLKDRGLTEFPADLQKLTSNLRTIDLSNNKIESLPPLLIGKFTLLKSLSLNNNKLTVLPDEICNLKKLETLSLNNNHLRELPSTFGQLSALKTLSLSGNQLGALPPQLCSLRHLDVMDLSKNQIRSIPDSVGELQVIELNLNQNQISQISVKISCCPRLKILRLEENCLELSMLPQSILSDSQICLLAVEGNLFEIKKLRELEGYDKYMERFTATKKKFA
UniProt Q8N883: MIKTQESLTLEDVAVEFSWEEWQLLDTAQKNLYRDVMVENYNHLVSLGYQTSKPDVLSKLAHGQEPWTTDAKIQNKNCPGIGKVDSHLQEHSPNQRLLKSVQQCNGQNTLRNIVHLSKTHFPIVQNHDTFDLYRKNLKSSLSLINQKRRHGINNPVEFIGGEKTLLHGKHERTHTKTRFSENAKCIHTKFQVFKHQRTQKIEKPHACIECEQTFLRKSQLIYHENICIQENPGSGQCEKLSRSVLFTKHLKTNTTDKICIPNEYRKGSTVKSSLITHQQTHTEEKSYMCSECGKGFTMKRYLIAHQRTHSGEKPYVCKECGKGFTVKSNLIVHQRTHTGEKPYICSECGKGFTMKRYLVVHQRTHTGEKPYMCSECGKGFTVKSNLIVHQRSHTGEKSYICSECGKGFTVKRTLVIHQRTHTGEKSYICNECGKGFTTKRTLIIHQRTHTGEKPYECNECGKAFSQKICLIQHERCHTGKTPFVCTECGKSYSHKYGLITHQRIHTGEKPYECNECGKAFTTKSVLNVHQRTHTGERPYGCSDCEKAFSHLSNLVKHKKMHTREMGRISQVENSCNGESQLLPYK
UniProt Q8NFA0: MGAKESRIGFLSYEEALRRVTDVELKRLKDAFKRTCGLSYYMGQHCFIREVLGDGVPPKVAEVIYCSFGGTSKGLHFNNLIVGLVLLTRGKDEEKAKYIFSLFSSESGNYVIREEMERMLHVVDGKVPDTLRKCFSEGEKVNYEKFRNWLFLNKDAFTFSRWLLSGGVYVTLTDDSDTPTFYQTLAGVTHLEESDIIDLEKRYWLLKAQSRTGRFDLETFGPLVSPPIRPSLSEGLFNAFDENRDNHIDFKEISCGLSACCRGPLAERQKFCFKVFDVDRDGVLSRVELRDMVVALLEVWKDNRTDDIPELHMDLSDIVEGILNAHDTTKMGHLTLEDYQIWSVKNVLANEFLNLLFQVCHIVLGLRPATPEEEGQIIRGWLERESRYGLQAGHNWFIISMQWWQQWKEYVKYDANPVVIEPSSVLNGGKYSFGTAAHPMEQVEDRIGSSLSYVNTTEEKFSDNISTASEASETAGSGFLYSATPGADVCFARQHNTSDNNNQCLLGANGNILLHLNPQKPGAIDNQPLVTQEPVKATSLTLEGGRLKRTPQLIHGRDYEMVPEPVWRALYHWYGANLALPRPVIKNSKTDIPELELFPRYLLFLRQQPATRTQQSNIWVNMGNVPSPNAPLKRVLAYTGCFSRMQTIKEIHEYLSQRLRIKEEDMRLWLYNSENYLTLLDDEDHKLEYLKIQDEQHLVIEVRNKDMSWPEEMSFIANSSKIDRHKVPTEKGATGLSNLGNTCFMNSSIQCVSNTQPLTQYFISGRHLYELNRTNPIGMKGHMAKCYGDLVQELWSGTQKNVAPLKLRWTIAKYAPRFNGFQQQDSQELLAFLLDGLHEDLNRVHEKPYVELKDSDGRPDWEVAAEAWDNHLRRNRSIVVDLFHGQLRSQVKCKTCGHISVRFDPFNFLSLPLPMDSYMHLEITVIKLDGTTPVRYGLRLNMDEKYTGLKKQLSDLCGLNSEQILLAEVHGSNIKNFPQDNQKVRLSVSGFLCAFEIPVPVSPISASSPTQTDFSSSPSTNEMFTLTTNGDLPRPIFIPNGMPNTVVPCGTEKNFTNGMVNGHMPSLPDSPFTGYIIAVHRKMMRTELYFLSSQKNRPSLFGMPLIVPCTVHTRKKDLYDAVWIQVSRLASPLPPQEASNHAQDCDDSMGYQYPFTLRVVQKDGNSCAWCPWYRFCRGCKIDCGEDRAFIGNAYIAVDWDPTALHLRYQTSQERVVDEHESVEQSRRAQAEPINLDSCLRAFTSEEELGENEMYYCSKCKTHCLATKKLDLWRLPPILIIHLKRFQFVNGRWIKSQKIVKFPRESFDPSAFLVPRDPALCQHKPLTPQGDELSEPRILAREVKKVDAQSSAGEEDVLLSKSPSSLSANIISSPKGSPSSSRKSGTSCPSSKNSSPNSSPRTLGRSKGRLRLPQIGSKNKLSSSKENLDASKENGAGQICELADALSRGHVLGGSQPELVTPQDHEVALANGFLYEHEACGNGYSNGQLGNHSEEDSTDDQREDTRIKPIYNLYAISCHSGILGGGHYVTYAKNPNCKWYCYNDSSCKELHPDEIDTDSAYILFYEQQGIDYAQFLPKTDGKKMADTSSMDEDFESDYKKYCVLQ
UniProt Q8NBI2: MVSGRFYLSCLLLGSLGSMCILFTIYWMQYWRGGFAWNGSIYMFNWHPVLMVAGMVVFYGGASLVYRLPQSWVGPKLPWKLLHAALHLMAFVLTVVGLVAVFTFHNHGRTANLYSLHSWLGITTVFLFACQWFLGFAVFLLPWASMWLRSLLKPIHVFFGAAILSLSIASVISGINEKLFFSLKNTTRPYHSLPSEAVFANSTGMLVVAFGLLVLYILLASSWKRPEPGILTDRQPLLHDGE
UniProt Q8N4W9: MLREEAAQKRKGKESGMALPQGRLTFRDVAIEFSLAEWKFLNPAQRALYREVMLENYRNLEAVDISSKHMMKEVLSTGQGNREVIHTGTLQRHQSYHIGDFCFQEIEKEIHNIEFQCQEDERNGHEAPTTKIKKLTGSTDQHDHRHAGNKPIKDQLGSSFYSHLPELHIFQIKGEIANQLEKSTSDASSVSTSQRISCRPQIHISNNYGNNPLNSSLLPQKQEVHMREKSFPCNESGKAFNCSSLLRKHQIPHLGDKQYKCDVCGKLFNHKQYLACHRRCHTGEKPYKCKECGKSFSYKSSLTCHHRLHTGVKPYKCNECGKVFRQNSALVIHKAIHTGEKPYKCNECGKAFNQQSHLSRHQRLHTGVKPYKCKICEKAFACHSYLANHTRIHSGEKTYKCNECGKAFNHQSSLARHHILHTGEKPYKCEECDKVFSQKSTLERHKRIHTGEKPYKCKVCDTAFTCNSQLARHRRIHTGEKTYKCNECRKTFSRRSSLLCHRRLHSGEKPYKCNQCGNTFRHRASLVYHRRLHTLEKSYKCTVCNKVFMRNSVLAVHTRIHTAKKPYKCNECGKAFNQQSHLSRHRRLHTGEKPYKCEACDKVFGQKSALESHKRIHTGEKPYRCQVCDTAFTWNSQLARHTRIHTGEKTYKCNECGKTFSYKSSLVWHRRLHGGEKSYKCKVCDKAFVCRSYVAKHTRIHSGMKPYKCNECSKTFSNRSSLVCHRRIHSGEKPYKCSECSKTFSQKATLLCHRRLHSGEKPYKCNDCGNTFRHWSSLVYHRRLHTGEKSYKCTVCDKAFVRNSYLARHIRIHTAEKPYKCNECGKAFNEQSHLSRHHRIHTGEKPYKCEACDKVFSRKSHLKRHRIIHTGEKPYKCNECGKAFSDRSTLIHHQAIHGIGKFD
UniProt Q8N4Q0: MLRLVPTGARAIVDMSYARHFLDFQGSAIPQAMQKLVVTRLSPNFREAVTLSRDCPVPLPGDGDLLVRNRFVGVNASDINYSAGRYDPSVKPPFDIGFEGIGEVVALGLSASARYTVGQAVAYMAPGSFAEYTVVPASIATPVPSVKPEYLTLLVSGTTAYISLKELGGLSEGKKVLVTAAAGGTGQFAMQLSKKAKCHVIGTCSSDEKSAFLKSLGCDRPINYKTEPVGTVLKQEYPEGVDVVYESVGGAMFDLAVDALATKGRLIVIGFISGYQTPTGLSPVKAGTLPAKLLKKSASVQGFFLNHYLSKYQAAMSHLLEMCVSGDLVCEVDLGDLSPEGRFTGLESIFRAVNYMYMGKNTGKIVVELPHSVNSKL

Compound: CN[C@@H]1C[C@H]2O[C@@](C)([C@@H]1OC)n1c3ccccc3c3c4c(c5c6ccccc6n2c5c31)C(=O)NC4 [staurosporine]
Experiment: log2 fold change of tryptic peptide abundance, ligand vs vehicle (limited proteolysis) (log2 ratio); higher = more trypsin-susceptible (destabilized)
Settings: ligand concentration: 20 uM; sample: K562 cleared lysate; digestion: 4 min, 22 C (HT-PELSA RT4min, Orbitrap Astral)

Target | log2 fold change
UniProt Q8N8Z8 (peptide sequence: VHTGEKPYK, peptide start residue: 783) | -0.351
UniProt Q8NEK5 (peptide sequence: TPTSLNIR, peptide start residue: 517) | 0.247
BAHD1 (peptide sequence: LASLNAEALNNLLLER, peptide start residue: 119) (UniProt Q8TBE0) | -0.505
LRRC57 (peptide sequence: HLDVMDLSK, peptide start residue: 132) (UniProt Q8N9N7) | 0.288
UniProt Q8N883 (peptide sequence: SSLSLINQK, peptide start residue: 139) | -0.339
USP32 (peptide sequence: LRLPQIGSK, peptide start residue: 1409) (UniProt Q8NFA0) | 1.77
UniProt Q8NBI2 (peptide sequence: QPLLHDGE, peptide start residue: 235) | -0.382
ZNF808 (peptide sequence: NSVLAVHTR, peptide start residue: 551) (UniProt Q8N4W9) | 0.495
ZADH2 (peptide sequence: SASVQGFFLNHYLSK, peptide start residue: 297) (UniProt Q8N4Q0) | 0.433
